Results are given in words; binding and its absence hold for the method and conditions named. In cells and extracts the contact can be indirect. Here binding means that the protein was enriched with, or labelled near, the bait; the list need not be complete.
Each substance was assayed against Argonaute 2 (mouse (endogenous in NSC-34)) (UniProt Q8CJG0) (assay: affinity purification with mass spectrometry).

By UniProt entry, the sequences of proteins in these tests, tags left out.
UniProt Q8CJG0: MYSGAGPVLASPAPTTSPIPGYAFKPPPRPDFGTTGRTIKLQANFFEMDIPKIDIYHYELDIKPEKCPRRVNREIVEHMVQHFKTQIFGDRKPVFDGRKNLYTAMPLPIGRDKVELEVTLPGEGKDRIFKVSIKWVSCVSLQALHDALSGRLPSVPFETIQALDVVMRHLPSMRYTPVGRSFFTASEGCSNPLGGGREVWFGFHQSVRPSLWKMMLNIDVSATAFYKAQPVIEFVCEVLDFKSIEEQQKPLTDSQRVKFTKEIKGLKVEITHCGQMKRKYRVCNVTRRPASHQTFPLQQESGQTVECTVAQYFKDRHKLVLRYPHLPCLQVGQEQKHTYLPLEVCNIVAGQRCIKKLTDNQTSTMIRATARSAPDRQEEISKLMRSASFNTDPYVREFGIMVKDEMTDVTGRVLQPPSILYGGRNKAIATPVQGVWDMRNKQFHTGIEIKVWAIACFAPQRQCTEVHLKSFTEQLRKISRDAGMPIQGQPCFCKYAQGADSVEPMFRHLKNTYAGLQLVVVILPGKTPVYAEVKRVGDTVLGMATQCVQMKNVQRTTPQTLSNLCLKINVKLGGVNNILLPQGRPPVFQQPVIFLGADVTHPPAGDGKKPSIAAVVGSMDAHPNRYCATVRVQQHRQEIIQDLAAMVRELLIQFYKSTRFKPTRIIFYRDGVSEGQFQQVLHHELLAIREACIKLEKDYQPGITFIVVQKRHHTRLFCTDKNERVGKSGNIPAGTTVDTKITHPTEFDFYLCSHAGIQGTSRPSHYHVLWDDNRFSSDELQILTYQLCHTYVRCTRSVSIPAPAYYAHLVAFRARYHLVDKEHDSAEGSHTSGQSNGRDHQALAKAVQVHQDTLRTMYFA
UniProt Q9CQF3: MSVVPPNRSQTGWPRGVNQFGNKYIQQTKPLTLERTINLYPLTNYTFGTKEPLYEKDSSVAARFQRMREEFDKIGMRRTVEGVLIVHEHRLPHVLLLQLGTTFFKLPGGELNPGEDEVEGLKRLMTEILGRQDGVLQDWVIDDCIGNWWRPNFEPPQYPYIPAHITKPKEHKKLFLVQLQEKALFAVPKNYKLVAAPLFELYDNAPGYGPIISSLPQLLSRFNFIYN
UniProt Q8BKI2: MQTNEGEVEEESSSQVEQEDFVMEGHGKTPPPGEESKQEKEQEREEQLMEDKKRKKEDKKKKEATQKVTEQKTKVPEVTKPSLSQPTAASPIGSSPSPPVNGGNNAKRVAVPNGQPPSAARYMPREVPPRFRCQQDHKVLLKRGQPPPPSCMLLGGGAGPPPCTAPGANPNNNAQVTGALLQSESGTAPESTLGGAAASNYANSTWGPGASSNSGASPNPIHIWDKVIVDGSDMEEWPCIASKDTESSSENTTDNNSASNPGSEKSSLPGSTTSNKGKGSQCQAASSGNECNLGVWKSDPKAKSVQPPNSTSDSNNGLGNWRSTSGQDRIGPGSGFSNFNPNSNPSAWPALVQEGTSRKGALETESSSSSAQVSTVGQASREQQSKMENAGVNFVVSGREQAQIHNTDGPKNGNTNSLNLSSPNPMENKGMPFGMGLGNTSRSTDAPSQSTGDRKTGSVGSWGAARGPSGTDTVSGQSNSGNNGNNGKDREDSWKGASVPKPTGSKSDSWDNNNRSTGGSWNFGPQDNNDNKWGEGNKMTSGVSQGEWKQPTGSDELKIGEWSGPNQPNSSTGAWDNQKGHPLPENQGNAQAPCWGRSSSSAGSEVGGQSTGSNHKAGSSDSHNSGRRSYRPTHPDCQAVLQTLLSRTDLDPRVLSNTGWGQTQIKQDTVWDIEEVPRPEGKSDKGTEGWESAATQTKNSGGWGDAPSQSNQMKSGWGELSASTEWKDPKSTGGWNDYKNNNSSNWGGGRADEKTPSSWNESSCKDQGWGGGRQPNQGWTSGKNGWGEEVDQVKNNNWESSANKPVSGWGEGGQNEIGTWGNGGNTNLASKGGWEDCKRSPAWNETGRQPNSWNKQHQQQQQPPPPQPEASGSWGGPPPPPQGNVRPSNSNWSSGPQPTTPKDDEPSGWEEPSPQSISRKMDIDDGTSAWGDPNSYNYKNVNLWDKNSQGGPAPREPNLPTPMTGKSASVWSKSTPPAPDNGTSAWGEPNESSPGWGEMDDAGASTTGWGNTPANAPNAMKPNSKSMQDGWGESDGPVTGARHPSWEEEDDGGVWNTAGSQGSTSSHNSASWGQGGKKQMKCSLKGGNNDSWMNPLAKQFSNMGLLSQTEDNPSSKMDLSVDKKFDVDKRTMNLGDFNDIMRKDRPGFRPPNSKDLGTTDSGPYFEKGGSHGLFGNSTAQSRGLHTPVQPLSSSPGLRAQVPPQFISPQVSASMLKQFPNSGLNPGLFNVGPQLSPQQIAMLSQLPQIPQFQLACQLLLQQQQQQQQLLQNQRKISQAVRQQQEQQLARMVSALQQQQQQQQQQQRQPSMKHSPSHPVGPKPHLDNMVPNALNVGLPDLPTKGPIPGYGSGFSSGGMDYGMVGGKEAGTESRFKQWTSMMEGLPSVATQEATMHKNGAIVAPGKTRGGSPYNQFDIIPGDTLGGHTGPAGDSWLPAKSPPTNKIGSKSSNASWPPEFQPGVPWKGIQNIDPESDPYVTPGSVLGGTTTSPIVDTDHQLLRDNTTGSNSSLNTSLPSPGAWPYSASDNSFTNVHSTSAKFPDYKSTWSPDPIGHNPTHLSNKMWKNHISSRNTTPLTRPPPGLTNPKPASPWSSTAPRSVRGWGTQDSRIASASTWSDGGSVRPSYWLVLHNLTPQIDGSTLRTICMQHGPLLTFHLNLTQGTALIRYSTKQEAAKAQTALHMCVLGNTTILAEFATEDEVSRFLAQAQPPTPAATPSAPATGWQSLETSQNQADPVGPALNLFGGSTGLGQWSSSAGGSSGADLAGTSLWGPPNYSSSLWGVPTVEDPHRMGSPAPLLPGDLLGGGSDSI
UniProt Q8BHD7: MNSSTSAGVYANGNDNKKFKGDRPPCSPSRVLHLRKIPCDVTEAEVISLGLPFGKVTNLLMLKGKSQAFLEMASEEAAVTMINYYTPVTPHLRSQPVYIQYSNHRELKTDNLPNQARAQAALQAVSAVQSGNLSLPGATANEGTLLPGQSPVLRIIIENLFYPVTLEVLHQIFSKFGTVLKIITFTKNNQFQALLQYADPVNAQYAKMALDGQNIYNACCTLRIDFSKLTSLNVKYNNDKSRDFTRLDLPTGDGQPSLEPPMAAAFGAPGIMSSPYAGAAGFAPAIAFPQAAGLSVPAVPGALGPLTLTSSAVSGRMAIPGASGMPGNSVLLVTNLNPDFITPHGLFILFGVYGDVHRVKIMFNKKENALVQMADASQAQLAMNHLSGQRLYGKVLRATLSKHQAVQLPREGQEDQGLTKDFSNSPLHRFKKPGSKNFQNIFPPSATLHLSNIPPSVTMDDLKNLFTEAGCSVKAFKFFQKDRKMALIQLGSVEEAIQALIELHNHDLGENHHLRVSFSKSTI
UniProt O88569: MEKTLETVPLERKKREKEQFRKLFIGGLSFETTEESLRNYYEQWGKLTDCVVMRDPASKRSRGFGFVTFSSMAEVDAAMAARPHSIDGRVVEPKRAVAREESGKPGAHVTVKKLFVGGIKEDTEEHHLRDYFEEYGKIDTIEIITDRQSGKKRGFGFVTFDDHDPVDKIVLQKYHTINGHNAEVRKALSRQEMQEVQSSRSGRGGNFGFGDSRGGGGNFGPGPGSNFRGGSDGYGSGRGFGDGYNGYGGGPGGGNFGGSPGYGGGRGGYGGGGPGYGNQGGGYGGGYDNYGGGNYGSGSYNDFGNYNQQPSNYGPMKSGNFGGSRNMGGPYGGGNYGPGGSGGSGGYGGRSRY
UniProt Q921F2: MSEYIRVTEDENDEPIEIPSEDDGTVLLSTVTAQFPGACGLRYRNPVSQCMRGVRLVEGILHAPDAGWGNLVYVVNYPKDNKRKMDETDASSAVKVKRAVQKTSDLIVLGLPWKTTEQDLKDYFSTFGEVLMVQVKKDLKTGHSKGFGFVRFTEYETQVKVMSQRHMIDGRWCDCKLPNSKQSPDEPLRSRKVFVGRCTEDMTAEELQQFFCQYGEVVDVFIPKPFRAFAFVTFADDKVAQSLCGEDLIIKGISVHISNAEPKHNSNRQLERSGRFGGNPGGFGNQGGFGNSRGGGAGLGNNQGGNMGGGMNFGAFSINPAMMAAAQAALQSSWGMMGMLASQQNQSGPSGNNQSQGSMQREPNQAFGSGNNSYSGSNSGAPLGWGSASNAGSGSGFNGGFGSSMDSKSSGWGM
UniProt Q60899: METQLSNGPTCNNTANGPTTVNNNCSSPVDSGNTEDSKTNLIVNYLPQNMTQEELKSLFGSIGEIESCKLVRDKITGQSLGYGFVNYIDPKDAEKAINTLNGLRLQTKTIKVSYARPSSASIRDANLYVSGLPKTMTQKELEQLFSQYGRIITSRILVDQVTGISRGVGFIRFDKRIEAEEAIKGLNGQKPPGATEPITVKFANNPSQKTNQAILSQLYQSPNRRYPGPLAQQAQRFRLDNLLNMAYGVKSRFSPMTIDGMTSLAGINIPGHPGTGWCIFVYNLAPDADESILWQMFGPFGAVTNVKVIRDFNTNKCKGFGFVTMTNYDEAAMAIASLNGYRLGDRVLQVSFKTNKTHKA
UniProt Q3UHK8: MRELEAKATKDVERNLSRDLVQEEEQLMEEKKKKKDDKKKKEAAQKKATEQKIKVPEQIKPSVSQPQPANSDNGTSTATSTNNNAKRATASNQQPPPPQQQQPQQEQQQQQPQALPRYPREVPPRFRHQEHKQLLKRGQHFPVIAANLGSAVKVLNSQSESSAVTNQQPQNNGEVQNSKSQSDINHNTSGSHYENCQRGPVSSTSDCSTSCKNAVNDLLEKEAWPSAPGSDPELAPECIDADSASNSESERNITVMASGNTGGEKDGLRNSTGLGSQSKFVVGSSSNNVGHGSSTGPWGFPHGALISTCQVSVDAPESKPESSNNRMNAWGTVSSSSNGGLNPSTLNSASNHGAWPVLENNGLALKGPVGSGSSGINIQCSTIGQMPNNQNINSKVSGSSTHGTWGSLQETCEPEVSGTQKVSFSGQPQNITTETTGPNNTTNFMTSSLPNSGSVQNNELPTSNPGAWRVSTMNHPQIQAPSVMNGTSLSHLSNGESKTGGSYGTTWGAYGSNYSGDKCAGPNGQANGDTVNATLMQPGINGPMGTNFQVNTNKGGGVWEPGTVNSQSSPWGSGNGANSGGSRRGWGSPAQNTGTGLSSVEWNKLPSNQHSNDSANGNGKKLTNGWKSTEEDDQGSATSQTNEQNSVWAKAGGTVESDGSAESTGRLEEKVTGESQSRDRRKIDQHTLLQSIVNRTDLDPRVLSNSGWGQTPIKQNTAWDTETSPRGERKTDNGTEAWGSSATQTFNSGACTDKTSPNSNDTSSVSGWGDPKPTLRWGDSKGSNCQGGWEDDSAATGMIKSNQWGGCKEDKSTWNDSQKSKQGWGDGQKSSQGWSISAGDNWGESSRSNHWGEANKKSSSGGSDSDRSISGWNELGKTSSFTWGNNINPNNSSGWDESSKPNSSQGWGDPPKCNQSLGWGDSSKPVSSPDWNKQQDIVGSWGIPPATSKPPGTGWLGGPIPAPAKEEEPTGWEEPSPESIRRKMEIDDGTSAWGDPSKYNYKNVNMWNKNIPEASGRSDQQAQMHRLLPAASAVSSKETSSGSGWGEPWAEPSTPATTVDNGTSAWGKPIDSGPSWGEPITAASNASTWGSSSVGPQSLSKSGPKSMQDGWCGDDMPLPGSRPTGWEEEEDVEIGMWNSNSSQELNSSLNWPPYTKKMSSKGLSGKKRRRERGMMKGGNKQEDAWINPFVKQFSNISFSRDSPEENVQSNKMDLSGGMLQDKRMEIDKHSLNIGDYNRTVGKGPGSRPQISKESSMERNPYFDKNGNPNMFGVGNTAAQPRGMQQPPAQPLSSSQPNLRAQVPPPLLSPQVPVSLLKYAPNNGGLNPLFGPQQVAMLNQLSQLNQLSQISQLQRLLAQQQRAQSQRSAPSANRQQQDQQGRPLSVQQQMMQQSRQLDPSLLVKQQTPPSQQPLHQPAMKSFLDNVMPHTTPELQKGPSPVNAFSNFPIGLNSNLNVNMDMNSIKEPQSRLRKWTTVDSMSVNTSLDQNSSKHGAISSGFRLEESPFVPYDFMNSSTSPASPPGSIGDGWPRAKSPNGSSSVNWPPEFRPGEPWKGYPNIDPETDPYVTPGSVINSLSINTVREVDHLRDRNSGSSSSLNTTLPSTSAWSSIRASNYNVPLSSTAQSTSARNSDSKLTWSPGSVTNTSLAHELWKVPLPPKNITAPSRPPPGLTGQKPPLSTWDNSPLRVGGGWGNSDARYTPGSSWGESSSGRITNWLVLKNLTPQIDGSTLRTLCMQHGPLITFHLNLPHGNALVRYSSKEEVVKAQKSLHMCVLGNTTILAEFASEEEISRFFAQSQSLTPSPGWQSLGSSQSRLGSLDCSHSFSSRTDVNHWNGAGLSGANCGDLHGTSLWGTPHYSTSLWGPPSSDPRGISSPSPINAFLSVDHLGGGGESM

| Substance | binding |
| --- | --- |
| NUDT21 (from UniProt Q9CQF3 1-227) | binds |
| TNRC6B (from UniProt Q8BKI2 1-1810) | binds |
| PTBP3 (from UniProt Q8BHD7 1-523) | binds |
| HNRNPA2B1 (from UniProt O88569 1-353) | binds |
| PTBP2 (from UniProt Q91Z31 1-531) | binds |

The next lines start with the values.

| binding | Substance |
| --- | --- |
| binds | TNRC6C (from UniProt Q3UHC0 1-1690) |
| binds | TDP-43 (from UniProt Q921F2 1-414) |
| binds | ELAVL2 (from UniProt Q60899 1-360) |
| binds | RBBP6 (from UniProt P97868 1-1790) |
| binds | ELAVL4 (from UniProt Q61701 1-385) |
| binds | TNRC6A (from UniProt Q3UHK8 1-1896) |

Source: paper doi:10.1101/2020.12.15.422806
